The source of these data is PMC10845952.

By UniProt entry, the sequences of proteins in these tests, tags left out. Where a name states a change or a piece, a line headed by the entry shows the natural chain unless it says otherwise. Residues count along the entry.
UniProt Q8CWY9: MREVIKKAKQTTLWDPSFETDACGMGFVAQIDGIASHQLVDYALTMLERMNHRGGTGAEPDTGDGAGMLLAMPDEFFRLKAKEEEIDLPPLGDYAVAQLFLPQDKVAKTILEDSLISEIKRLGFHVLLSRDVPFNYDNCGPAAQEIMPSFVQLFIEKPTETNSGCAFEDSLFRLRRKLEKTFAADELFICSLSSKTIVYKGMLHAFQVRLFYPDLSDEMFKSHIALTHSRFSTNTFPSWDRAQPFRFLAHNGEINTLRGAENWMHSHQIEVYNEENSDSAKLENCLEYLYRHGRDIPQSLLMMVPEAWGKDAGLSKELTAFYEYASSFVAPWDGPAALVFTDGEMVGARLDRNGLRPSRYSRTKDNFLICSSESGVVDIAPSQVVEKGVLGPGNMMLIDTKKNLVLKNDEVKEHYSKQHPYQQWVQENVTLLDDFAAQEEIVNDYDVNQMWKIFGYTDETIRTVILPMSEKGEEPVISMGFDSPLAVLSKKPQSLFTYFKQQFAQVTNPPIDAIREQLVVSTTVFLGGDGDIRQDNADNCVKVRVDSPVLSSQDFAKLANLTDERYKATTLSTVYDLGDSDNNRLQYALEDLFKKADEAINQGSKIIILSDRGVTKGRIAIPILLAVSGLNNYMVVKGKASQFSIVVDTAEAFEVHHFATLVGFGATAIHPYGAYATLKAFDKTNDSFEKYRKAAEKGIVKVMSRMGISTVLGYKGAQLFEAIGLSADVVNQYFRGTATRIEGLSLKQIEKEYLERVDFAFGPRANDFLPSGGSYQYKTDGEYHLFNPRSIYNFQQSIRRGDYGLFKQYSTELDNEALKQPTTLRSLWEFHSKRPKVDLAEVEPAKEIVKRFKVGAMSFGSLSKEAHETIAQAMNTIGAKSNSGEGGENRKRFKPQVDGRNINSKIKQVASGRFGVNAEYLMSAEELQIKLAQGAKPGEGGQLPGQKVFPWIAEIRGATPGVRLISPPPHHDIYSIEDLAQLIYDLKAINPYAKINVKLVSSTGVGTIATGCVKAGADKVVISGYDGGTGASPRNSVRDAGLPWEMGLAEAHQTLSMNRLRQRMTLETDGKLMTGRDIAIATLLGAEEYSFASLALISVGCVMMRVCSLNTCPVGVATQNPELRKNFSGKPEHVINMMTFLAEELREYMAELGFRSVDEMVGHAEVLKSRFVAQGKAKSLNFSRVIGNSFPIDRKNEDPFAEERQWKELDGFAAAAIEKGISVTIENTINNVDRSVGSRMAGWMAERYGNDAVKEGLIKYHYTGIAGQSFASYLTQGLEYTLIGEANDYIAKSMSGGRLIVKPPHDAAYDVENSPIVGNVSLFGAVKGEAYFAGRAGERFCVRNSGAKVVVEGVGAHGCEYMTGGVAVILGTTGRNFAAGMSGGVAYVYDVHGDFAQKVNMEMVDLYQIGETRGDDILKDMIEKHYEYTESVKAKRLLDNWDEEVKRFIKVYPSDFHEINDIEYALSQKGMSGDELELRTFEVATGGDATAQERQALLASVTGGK
UniProt Q59931: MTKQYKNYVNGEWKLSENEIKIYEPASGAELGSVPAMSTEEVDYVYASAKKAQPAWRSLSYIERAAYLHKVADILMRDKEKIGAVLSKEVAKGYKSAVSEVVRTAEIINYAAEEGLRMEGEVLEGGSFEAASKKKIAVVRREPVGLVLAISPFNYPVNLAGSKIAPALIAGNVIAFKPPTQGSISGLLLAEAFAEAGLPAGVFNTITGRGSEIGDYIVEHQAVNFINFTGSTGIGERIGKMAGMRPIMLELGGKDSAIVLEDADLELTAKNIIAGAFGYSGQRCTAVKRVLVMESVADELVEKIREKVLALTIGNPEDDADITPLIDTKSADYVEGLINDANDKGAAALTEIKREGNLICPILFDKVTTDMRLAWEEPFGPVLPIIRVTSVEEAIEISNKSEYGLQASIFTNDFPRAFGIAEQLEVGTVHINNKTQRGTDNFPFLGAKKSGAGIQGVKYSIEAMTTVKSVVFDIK
UniProt Q8DVD0: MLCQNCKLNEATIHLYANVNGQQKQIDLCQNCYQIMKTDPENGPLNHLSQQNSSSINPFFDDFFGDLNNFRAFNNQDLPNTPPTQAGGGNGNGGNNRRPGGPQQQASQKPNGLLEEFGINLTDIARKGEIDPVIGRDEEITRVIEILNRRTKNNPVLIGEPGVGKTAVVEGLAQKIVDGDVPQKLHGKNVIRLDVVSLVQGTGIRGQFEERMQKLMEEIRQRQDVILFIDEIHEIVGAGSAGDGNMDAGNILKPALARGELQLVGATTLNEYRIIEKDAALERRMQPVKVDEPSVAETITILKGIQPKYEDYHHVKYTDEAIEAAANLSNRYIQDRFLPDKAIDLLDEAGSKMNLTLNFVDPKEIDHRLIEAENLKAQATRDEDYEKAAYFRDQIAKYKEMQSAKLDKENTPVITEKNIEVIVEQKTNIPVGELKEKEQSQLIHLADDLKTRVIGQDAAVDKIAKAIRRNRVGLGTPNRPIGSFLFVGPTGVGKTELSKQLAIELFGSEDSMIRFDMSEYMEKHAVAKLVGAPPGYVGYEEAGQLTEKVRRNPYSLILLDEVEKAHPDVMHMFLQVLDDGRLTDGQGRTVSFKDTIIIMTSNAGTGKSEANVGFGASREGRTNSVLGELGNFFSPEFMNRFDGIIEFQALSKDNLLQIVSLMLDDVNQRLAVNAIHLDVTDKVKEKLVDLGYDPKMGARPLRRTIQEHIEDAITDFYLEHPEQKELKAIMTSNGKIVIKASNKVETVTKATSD
UniProt Q8DS05: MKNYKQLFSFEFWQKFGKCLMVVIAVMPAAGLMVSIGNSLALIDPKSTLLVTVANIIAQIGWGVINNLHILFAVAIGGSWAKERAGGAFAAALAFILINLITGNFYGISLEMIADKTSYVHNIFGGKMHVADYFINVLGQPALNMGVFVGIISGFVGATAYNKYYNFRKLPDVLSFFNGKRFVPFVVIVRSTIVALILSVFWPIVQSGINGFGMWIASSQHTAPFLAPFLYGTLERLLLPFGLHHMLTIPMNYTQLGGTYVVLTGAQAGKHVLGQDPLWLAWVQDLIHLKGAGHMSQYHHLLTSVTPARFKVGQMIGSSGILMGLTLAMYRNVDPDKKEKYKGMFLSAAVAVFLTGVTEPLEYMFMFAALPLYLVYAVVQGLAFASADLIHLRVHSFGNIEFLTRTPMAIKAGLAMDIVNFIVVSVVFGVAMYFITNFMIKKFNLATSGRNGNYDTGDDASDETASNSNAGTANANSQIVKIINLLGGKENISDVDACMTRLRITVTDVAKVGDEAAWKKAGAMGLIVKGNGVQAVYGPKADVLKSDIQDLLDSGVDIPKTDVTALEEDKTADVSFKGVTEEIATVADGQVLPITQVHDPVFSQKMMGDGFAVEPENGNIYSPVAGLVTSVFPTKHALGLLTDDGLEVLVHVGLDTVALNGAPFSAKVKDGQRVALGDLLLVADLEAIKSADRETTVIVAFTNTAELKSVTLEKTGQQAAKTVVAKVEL
UniProt Q8DW25: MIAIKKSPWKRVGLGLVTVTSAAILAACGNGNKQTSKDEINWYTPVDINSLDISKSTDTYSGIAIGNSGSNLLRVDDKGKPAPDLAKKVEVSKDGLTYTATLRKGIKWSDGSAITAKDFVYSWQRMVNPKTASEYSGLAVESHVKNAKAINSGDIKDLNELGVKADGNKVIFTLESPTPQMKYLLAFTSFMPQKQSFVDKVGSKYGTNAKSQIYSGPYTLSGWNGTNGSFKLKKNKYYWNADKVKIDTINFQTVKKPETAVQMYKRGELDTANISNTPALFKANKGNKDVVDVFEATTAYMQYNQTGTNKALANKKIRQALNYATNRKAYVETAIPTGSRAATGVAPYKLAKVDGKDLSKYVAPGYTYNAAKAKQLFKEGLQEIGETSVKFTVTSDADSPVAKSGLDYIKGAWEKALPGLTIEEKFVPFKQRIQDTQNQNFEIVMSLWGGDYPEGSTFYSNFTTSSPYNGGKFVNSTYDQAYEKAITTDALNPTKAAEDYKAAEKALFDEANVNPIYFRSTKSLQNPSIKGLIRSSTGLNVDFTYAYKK
UniProt Q8DUD3: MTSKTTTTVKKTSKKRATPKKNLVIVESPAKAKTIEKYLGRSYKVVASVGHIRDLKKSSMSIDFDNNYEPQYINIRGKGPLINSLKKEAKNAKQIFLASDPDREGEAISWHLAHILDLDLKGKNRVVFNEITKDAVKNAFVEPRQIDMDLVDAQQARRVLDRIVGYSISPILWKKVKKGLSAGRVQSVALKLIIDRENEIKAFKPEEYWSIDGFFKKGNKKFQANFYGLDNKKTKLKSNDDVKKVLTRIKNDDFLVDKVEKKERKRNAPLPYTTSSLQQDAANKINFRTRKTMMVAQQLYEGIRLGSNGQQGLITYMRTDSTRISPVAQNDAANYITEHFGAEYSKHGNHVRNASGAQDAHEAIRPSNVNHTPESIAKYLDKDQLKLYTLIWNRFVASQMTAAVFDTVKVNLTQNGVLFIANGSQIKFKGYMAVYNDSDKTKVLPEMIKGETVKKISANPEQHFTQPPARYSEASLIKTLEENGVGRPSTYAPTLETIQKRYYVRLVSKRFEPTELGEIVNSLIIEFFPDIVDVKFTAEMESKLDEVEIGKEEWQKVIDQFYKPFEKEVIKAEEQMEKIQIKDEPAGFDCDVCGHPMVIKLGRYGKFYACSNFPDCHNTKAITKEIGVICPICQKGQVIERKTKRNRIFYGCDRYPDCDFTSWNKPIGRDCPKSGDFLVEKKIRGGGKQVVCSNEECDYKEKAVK
UniProt Q8DV07: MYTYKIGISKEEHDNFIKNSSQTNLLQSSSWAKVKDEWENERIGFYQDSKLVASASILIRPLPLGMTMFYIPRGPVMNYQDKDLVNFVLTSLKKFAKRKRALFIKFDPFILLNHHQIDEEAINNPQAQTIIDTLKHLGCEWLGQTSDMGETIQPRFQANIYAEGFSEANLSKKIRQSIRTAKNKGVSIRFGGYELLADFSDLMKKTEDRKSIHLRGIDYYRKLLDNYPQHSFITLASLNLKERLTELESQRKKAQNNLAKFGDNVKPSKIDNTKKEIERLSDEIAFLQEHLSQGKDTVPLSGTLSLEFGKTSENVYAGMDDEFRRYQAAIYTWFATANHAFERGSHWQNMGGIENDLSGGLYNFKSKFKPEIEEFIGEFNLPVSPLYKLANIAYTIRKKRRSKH
UniProt P08987, residues 35-1476: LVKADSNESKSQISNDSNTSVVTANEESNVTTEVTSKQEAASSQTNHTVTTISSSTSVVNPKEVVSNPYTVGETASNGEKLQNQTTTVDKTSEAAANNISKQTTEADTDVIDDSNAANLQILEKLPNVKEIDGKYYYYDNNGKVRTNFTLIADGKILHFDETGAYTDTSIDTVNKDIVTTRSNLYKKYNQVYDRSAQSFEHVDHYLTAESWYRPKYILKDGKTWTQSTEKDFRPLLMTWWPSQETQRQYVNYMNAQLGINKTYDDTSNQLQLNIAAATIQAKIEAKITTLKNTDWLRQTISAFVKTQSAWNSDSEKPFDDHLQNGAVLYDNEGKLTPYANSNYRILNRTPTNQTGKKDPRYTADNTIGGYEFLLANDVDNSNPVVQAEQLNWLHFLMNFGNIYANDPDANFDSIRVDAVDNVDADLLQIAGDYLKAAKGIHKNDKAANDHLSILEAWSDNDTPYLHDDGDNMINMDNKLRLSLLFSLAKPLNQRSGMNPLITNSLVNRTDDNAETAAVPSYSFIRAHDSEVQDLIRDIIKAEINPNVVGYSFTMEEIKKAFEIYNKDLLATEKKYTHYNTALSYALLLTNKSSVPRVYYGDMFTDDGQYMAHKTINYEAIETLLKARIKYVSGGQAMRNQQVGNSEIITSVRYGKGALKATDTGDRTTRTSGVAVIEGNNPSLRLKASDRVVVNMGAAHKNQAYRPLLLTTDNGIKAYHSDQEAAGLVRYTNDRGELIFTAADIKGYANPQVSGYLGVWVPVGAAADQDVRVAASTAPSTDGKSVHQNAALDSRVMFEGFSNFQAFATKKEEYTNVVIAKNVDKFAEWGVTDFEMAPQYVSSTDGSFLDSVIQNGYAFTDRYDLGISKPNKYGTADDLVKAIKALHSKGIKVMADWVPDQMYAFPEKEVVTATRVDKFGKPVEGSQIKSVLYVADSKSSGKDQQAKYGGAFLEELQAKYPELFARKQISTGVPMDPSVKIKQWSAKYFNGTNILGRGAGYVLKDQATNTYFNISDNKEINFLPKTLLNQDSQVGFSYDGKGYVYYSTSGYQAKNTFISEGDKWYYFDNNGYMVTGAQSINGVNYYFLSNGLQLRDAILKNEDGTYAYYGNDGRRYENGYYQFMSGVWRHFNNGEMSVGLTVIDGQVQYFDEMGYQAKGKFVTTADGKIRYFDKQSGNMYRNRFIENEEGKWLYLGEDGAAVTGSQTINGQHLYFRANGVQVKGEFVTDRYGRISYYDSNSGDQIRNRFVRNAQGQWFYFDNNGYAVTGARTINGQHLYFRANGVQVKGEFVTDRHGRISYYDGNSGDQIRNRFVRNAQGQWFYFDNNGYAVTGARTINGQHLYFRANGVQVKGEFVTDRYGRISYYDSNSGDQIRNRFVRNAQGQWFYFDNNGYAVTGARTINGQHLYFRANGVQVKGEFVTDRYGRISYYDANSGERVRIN

These are yes or no findings as the source states them, for the method shown. Binding seen in cells or lysates may run through a third protein. Here binding means that the protein was enriched with, or labelled near, the bait; the list need not be complete. Sequences can lack the tags named with a protein.

The target in the first assay is T1, MecA with C-terminal tandem affinity purification (TAP) tag (3x HA + FLAG) (S. mutans) (UniProt Q8DW33).
T1 sequence: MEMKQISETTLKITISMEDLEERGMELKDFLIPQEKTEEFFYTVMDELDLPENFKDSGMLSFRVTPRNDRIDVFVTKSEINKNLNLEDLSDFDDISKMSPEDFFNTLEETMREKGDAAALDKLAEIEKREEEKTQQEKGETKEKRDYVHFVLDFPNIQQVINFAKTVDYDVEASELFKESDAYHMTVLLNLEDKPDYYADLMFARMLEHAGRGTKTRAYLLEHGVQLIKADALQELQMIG
Briefly: affinity purification with mass spectrometry; MecA with C-terminal TAP tag (3x HA + FLAG) as bait; S. mutans grown to mid-logarithmic phase, formaldehyde crosslinked; anti-FLAG affinity resin, then anti-HA affinity resin; LC-MS/MS; three experiments; >=2-fold enrichment of spectral counts over the untagged wild type.
Consider “Glutamate synthase large subunit, GltA (from UniProt Q8CWY9)”, for which the binding entry is given as “binds”.

As for “NADP-dependent glyceraldehyde-3-phosphate dehydrogenase, GapN (from UniProt Q59931 1-475)”, the binding entry is listed as “binds”.

On to “ATP-dependent Clp protease ATP-binding subunit, ClpE (from UniProt Q8DVD0 1-753)”, for which the binding result is recorded as “binds”.

Regarding “PTS transporter subunit EIIC, PtsG (from UniProt Q8DS05)”, the binding entry is on record as “binds”.

Turning to “Peptide ABC transporter substrate-binding protein, OppA (from UniProt Q8DW25)”, the binding result is “binds”.

As to “DNA topoisomerase IV subunit B, ParE (from UniProt Q8DTW0 1-649)”, the binding result was “binds”.

As to “Threonine synthase, ThrC (from UniProt Q8DWH9)”, the binding result is “binds”.

With “Autolysin (S. mutans (endogenous in UA159))”, the binding result is recorded as “binds”.

Consider “DNA topoisomerase (ATP-hydrolyzing) subunit B, GyrB (from UniProt Q8DTQ2 1-650)”, for which the binding result is given as “binds”.

For the next assay, the target named is T1, MecA with C-terminal tandem affinity purification (TAP) tag (3x HA + FLAG) (S. mutans). Briefly: affinity purification with mass spectrom.
Take “Type I DNA topoisomerase, TopA (from UniProt Q8DUD3 1-705)”: the binding result was “binds”.

The next assay has the same target. Briefly: affinity purification with mass spectrometry.
For “Glucosyltransferase-SI, GtfC (from UniProt P13470 35-1455)”, the binding entry is on record as “binds”.

Consider “Aminoacyltransferase, MurM (from UniProt Q8DV07 1-404)”, for which the binding entry is listed as “binds”.

Regarding “Glucosyltransferase-I, GtfB (from UniProt P08987 35-1476)”, the binding result is “binds”.
